PubChem BioAssay AID1259424 | University of Nebraska Medical Center – 2018
Here is a random part of about 14,000 reagents. 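Higher correlation or smaller distance means closer resemblance to KSR1 loss; control wells, including KSR1 knockdowns, recur on many plates.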 Reagent sequences are not shown. The record does not give: the time to read-out.

Test: 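Rank knockdowns across the genome by resemblance to the KSR1 depletion profile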 (primary screen)
Cell system: human HCT116 colon cancer cells
Knock-down reagent: siRNA pool against human genes, 50 nM
Measurement: 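Log2 levels of six mRNAs (branched-DNA multiplex), adjusted by two reference genes and the non-targeting median, then scored against the average KSR1 knockdown pattern as Pearson r and euclidean distance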
Scale: mean correlation with KSR1 profile and KSR1 correlation: higher = expression change more like KSR1 knockdown; mean distance from KSR1 profile: higher = expression change less like KSR1 knockdown

Gene	mean correlation with KSR1 profile	mean distance from KSR1 profile	KSR1 correlation, replicate 1	KSR1 correlation, replicate 2	KSR1 correlation, replicate 3
KIF13A	-0.319	2.58	-0.329	-0.432	-0.253
FAM219B	0.0538	1.91	-0.0152	0.0831	0.411
ERG	-0.328	1.71	-0.259	-0.385	-0.0387
SLC25A12	0.544	2.61	0.876	0.497	0.311
GLMN	-0.285	2.26	-0.192	-0.188	-0.338
KREMEN1	-0.615	1.72	-0.604	-0.631	-0.423
CAMKK1	0.159	3.17	0.522	0.0706	-0.399
CFHR4	-0.407	2.03	-0.183	-0.591	-0.116
ATP5MJ	-0.234	1.44	-0.266	0.184	-0.552
PRKCE	0.484	1.39	0.659	0.537	-0.124
GPHRB	0.407	4.13	0.402	0.484	0.352
TRIM63	0.674	4.09	0.509	0.545	0.635
CACNA1A	-0.567	2.76	-0.493	-0.463	-0.533
TAF10	-0.871	2.14	-0.142	-0.188	-0.81
CPEB3	-0.693	2.6	-0.474	-0.677	-0.658
COPZ1	-0.65	5.28	-0.714	-0.622	-0.67
SOS2	-0.354	2.2	-0.288	-0.423	-0.409
PRKAG3	-0.0358	4.42	0.238	0.248	-0.591
OR8B8	0.669	2.82	0.776	0.702	0.642
VPS13C	0.0266	1.48	0.0209	0.181	-0.338
GAPVD1	-0.454	3.48	-0.138	-0.643	-0.443
DES	-0.286	2.71	-0.139	-0.0501	-0.519
SEC31B	-0.285	1.69	-0.299	-0.499	0.0343
RIPPLY3	0.0314	1.16	-0.214	0.476	-0.432
CENPH	-0.343	2.69	-0.321	-0.395	-0.339
TRADD	-0.674	2.19	-0.559	-0.761	-0.784
KIR3DL1	0.0895	1.65	0.0658	-0.0564	0.0787
ZNF410	-0.141	1.69	-0.31	0.0718	-0.155
USP48	0.736	1.17	0.602	0.733	0.717
HM13	0.609	2.16	0.407	0.627	0.62

The list goes on (3 carried over from the part before).
Gene	mean correlation with KSR1 profile	mean distance from KSR1 profile	KSR1 correlation, replicate 1	KSR1 correlation, replicate 2	KSR1 correlation, replicate 3
ZNF410	-0.141	1.69	-0.31	0.0718	-0.155
USP48	0.736	1.17	0.602	0.733	0.717
HM13	0.609	2.16	0.407	0.627	0.62
GUCA1B	0.297	2.82	0.43	0.223	0.356
SLC20A2	0.521	0.833	0.322	0.472	0.629
CD84	-0.218	1.28	-0.271	-0.156	-0.47
FOXD2	0.298	2.6	0.269	0.338	0.451
MYO3B	0.288	2.02	0.34	0.41	0.181
TNFRSF6B	0.289	2.53	0.197	0.307	0.324
TSGA10	0.53	1.66	0.367	0.512	0.521
MT-ATP6	0.223	3.01	0.0946	0.0638	0.259
TNFRSF1B	0.487	3.42	0.619	0.464	0.372
GATM	-0.229	3.55	-0.195	-0.318	-0.32
TBCE	0.00768	1.8	0.0423	0.258	-0.405
TAF4	0.268	1.2	0.461	0.143	0.267
VPS4A	0.504	1.88	0.329	-0.00802	0.425
LPCAT2	-0.551	4.64	0.176	-0.44	0.0948
TARS1	-0.00611	0.999	-0.016	-0.26	0.29
RAP2B	-0.0527	2.01	-0.331	0.0613	0.153
TIMM21	0.275	2.2	0.399	-0.417	0.519
ABCC13	-0.674	2.26	-0.699	-0.462	-0.705
ISLR2	-0.409	1.74	-0.633	-0.288	-0.146
TMEM147	-0.418	3.94	-0.314	-0.399	-0.409
